In article PMC10049986:
Results are given in words; binding and its absence hold for the method and conditions named. Binding seen in cells or lysates may run through a third protein. Some results given as binding are weak or reduced against the parent protein; the word gives no strength. Tags and fused reporters may be left off the sequences shown. Each block holds one binder with its values, some of them ahead of it.

Key:
Conditions in all cases: remark: other sources report otherwise
[1] = target: T1, pTRB:TRB-FLAG TRB1 (Telomere Repeat Binding factor 1 with 3xFLAG) (Arabidopsis thaliana), Q8VWK4; test: co-IP; seedlings of FLAG-TRB x Myc-JMJ14 crossed lines; anti-FLAG M2 Affinity Gel, 2 h at 4 °C; IP buffer 50 mM Tris HCl pH 7.5, 150 mM NaCl, 1% TritonX-100; eluted with 3xFLAG peptide; western blot
T1 chain: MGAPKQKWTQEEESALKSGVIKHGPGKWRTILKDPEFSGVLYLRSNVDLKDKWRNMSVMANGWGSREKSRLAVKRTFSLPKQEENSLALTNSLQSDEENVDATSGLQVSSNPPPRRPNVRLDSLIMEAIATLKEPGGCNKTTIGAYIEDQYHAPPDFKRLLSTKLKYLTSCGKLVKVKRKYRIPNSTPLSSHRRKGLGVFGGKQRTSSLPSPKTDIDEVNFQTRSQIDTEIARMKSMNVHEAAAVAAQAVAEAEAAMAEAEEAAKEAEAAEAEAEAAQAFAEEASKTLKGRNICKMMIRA

[2] = target: T2, pTRB:TRB-FLAG TRB2 (Telomere Repeat Binding factor 2 with 3xFLAG) (Arabidopsis thaliana), Q9FJW5; test: as above
T2 chain: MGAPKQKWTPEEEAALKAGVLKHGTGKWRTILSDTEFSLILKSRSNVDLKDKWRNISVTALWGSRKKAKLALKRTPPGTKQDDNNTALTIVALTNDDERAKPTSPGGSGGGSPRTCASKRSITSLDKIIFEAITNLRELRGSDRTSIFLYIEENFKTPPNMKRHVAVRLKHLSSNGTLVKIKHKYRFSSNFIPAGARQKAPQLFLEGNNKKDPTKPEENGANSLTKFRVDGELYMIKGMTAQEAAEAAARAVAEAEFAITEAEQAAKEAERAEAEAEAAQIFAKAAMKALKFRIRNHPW

[3] = target: T3, pTRB:TRB-FLAG TRB3 (Telomere Repeat Binding factor 3 with 3xFLAG) (Arabidopsis thaliana), Q9M2X3; test: as above
T3 chain: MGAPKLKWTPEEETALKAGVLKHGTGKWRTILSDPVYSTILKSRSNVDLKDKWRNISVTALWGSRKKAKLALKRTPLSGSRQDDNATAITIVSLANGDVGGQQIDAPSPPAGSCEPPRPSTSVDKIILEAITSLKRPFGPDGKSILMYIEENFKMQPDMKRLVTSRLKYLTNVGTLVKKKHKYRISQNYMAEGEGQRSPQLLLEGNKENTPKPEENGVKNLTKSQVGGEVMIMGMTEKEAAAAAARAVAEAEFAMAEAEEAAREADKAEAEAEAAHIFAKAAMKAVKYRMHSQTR

[4] = target: T4, TRB1 fused with the C-terminal fragment of YFP (Arabidopsis thaliana), Q8VWK4; test: split reporter; BiFC: N-terminal fragment of YFP on JMJ14 or NAC052, C-terminal fragment of YFP on TRBs; transient co-expression in Nicotiana benthamiana leaves; confocal microscopy; empty vector as control
T4 chain: T1 chain

[5] = target: T5, TRB2 fused with the C-terminal fragment of YFP (Arabidopsis thaliana), Q9FJW5; test: as above
T5 chain: T2 chain

[6] = target: T6, TRB3 fused with the C-terminal fragment of YFP (Arabidopsis thaliana), Q9M2X3; test: as above
T6 chain: T3 chain

binding [1]: binds
binding [2]: binds
binding [3]: binds
B1: pJMJ14:JMJ14-Myc (JUMONJI14 with 9xMyc), Q8GUI6 1-954 (protein)
chain: MDQLASLAESVAMEEDSEKQSIKGESSLEPDSTPSSPKITARWNPSEACRPLVDDAPIFYPTNEDFDDPLGYIEKLRSKAESYGICRIVPPVAWRPPCPLKEKKIWENSKFPTRIQFIDLLQNREPIKKSTKTKKRKRRRISKIGYTRRKRDSGCDTASSGSSDSEGKFGFQTGPDFTLEEFQKYDEYFKECYFQSEDHPGSKASENKKFKPKVKDLEGEYWRIVEQATDEVEVYYGADLETKKFGSGFPKYKPGYPISEADQYSQCGWNLNNLSRLPGSVLAFESCDISGVIVPWLYVGMCFSTFCWHVEDHHLYSMNYLHTGDPKVWYGIPGNHAESFENVMKKRLPDLFEEQPDLLHQLVTQLSPRILKEEGVPVYRAVQRSGEFILTFPKAYHSGFNCGFNCAEAVNVAPVDWLVHGQNAVEGYSKQRRKSSLSHDKLLLGAAMEATYCLWELSLSKKKTPVIARWKRVCSEDGLLTKAVKKRVQMEEERLNHLQDGFSLRKMEGDFDNKRERECFLCFYDLHMSASSCKCSPNRFACLIHAKDLCSCESKDRYILIRHTLDELWALVRALEGDLDAIDLWASKCRDQYPSQHPRAREYAYLKSAPCIKSRGSSKVQQREQNNLQLVSERLQSDLTSNKEVQLKQDGDSDVNRHGHESERNHVHGITDKSAVTDVKLGVGGKFDEKKISVESQNPHSVSDVGCSELAKKVDGCLGGKDQNAATNRLSLSVELLSSGSLVVKKLWCSKQAIYPKGFKSRVKFLSVLDPTNLTNYISEVLDAGLLGPLFRVSVEDYPTENFSNVSAEKCWQMVTQRLKLEIIKKCDQPVSSLTSLQPLESINGLEMFGFLSPHVIKVVEALDPKHQLEEYWNQKAVKLFGAEPIKEGEKDDTEKGGASDPSLDRDTRLLRGLLKKATPEELVMMHGLLCGETRNTELKEELSTLVDKMEISP

binding [4]: binds
binding [5]: binds
binding [6]: binds
B2: JMJ14 fused with the N-terminal fragment of YFP, Q8GUI6 1-954 (protein)
chain: B1 chain

binding [4]: binds
binding [5]: binds
binding [6]: binds
B3: NAC052 fused with the N-terminal fragment of YFP, Q9SQY0 1-451 (protein)
chain: MGRESVAVVTAPPSATAPGTASVATSLAPGFRFHPTDEELVSYYLKRKVLGQPVRFDAIGEVDIYKHEPWDLAVFSRLKTRDQEWYFYSALDKKYGNGARMNRATNRGYWKATGKDREIRRDILLLGMKKTLVFHSGRAPDGLRTNWVMHEYRLVEYETEKNGNLVQDAYVLCRVFHKNNIGPPSGNRYAPFMEEEWADDEGALIPGIDVKLRLEPPPVANGNDQMDQEIQSASKSLININEPPRETAPLDIESDQQNHHENDLKPEEHNNNNNYDENEETLKREQMEEEERPPRPVCVLNKEAPLPLLQYKRRRQSESNNNSSRNTQDHCSSTTTTVDNTTTLISSSAAATNTAISALLEFSLMGISDKKEKPQQPLRPHKEPLPPQTPLASPEEKVNDLQKEIHQMSVERETFKLEMMSAEAMISILQSRIDALRQENEELKKNNANGQ
